Measured values as given in patent publication US20070249808A1 (published 2007).

Key:
Assay in all cases: cell-based or functional assay
[1] = target: Vβ17 T-cell receptor chains on human peripheral blood T cells (human)
[2] = target: Vβ6.7 T-cell receptor chains on human peripheral blood T cells (human)
[3] = target: Vβ21.3 T-cell receptor chains on human peripheral blood T cells (human)

B1: HERV-W ENV protein, full length (protein G), expressed in MHC class II+ transfectants (other)
chain: APPPCRCMTSSSPYQEFLWRMQRPGNIDAPSYRSLSKGTPTFTAHTHMPRNCYHSATLCMHANTHYWTGKMINPSCPGGLGVTVCWTYFTQTGMSDGGGVQDQAREKHVKEVISQLTRVHGTSSPYKGLDLSKLHETLRTHTRLVSLFNTTLTGLHEVSAQNPTNCWICLPLNFRPYVSIPVPEQWNNFSTEINTTSVLVGPLVSNLEITHTSNLTCVKFSNTTYTTNSQCIRWVTPPTQIVCLPSGIFFVCGTSAYRCLNGSSESMCFLSFLVPPMTIYTEQDLYSYVISKPRNKRVPILPFVIGAGVLGALGTGIGGITTSTQFYYKLSQELNGDMERVADSLVTLQDQLNSLAAVVLQNRRALDLLTAERGGTCLFLGEECCYYVNQSGIVTEKVKEIRDRIQRRAEELRNTGPWGLLSQWMPWILPFLGPLAAIILLLLFGPCIFNLLVNFVSSRIEAVKLQMEPKMQSKTKIYRRPLDRPASPRSDVNDIKGTPPEEISAAQPLLRPNSAGSS
fold increase of Vβ+ T cells after two weeks of stimulation by transfectants, donor 1 [1]: 3 fold
fold increase of Vβ+ T cells after two weeks of stimulation by transfectants, donor 2 [1]: 2.3 fold
fold increase of Vβ+ T cells after two weeks of stimulation by transfectants, donor 1 [2]: 1.7 fold
fold increase of Vβ+ T cells after two weeks of stimulation by transfectants, donor 2 [2]: 1.43 fold
fold increase of Vβ+ T cells after two weeks of stimulation by transfectants, donor 2 [3]: 2.18 fold
